Assay results as given in PubChem BioAssay AID588590 (National Center for Advancing Translational Sciences (NCATS), 2011).
Out of some 390,000 compounds screened, about 4,000 (1%) were called active. This list was built around the results that the source calls inconclusive (neither active nor inactive); the mix of calls is not that of the screen. Calls follow the shape of the dose curve; as a rule, active = well fitted inhibition curve with a large enough effect; inconclusive = small, poorly fitted or top-dose-only effect, or another doubt; inactive = no such curve, though single readings can be large or run the other way. Potencies of inconclusive entries are doubtful fits and often do not repeat.

Amino acid sequences for entries named in this document (tags omitted). A change or cut given only in a name is not applied to a line headed by its entry.
UniProt Q9UNA4: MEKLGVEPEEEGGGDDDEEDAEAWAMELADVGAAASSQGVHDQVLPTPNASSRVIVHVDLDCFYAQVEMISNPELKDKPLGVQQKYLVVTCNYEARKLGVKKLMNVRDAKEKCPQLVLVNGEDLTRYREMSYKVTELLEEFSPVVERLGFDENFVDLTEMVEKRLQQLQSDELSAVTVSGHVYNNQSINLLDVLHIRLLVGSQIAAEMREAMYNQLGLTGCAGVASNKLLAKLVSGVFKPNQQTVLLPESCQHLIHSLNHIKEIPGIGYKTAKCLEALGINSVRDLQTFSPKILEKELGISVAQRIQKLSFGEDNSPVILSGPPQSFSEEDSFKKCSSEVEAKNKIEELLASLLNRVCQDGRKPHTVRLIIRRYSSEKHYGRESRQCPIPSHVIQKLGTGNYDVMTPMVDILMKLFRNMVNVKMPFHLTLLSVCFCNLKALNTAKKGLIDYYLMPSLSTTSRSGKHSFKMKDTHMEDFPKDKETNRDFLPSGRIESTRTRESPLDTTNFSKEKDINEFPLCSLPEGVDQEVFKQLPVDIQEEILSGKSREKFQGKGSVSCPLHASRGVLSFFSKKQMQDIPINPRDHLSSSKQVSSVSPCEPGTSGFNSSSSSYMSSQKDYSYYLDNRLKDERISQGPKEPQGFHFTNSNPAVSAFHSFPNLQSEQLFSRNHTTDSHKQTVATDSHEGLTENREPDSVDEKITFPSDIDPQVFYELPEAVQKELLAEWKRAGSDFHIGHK

These compounds were tested against DNA polymerase iota (Homo sapiens) (UniProt Q9UNA4) (assay: qHTS for Inhibitors of Polymerase Iota). Settings: Pol iota fluorescent replication assay, 10 min; series mostly up to 115 µM; activity, negative = inhibition: at the top concentration.
Procedure, shortened: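 Fluorescent replication assay read twice, at 0 min and 10 min after adding 50 nM (final) substrate. Enzyme (10 nM) and compounds were first incubated 15 min at room temperature; enzyme-free buffer wells were negative controls.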
Potency is read from the fitted curve at half-maximal effect.

Compound | Potency | activity, negative = inhibition
c1nnnn1C12CC3CC(CC(C3)C1)C2 | inconclusive: 89.1 µM [inhibitor, single point] | –
CN(Cc1ccccc1)CC(O)COc1ccc(CNCc2ccc(Cl)s2)cc1 (centres undefined) | inconclusive: 79.4 µM [inhibitor, single point] | –
Cc1cc(C)n2nc(C(=O)OCC(=O)c3cc(C)n(CC4CCCO4)c3C)nc2n1 (centres undefined) | – | inactive: 62.7%
Clc1cccc(-c2ccc3ncnc(NCc4cccnc4)c3c2)c1 | inconclusive: 17.8 µM [inhibitor, full curve, poor fit] | –
CC1(C)Cc2c(sc(NC(=O)c3ccccc3)c2C(=O)O)CO1 | – | inactive: 54.1%
CCOc1ccc(CCNC(=O)c2ccc(Cl)c(S(=O)(=O)N3CCOCC3)c2)cc1OCC | inconclusive: 22.4 µM [inhibitor, full curve] | –
CC(=O)Nc1cc2c(cc1[N+](=O)[O-])-c1ccccc1C2O (centres undefined) | inconclusive: 1 µM [inhibitor, full curve, poor fit] | –
CC(=O)NC(C)c1cc(Cl)c2cccnc2c1O (centres undefined) | – | inactive: -0.745%
Cc1cc(C)c(NC(=O)Cn2nnc(C(=O)NCc3ccco3)c2N)c(C)c1 | inconclusive: 10 µM [inhibitor, partial curve] | –
Cc1ccc(Cl)cc1N1CCN(S(=O)(=O)c2ccc3[nH]c(=O)ccc3c2)CC1 | inconclusive: 44.7 µM [inhibitor, single point] | –
O=C(CSCc1ccco1)c1cccs1 | inconclusive: 28.2 µM [inhibitor, partial curve, poor fit] | –
Cc1ccnc(NCn2nnc3ccccc32)c1 | inconclusive: 79.4 µM [inhibitor, single point] | –
CC(Oc1ccccc1)C(=O)N[C@@H]1C(=O)N2C(C(=O)O)C(C)(C)S[C@H]12 (some centres undefined) | – | inactive: 18.9%
O=C(CSc1nnc(-c2ccc(Cl)cc2)o1)Nc1ccc(F)cc1 | – | inactive: 43.9%
O=C1CC(c2ccccc2)=C(c2ccccc2)C1 | inconclusive: 89.1 µM [inhibitor, single point] | –
N#Cc1c(-c2c(Cl)cccc2Cl)noc1/C=C/Nc1ccc(C(=O)O)cc1 | inconclusive: 39.8 µM [inhibitor, partial curve] | –
COc1ccc(Nc2cc(C)nc3c(C)c(C)ccc23)cc1 | – | inactive: -18.5%
Cc1ccc2onc(CNC(=O)Nc3cc(F)ccc3F)c2c1 | – | inactive: 10.5%
CCCCN1CCNC[C@@H]1Cc1ccc(O)cc1 | inconclusive: 39.8 µM [inhibitor, partial curve, poor fit] | –
[N-]=[N+]=NCCN1CCN(CCc2ccccc2)CCC1=O | – | inactive: 50.1%
O=C(NCC(c1ccc(Cl)cc1)N1CCCCC1)c1ccccc1F (centres undefined) | – | inactive: 6.65%
Cc1cc(C)c(S(=O)(=O)/N=C2/C=C(SCC(=O)O)C(=O)c3ccccc32)cc1C | active: 6.31 µM | –
O=C(COC(=O)c1cc(-c2ccc(Cl)s2)nc2ccccc12)NCc1ccco1 | inconclusive: 112 µM [inhibitor, partial curve, poor fit] | –
O=C(C[n+]1ccccc1)c1cccc([N+](=O)[O-])c1 | – | inactive: 23.1%
COc1ccc(NC(=O)Cn2c(=O)n(-c3cccc(C(F)(F)F)c3)c(=O)c3sccc32)cc1 | – | inactive: 11.5%

Compound | Potency | activity, negative = inhibition
O=C(NCc1ccc(F)cc1)c1cnc(N2CCCCC2)c2ccccc12 | – | inactive: 21.8%
O=C(NNC(=O)C1CC(c2cccs2)=NO1)Nc1ccc(Cl)cc1 (centres undefined) | inconclusive: 15.8 µM [inhibitor, full curve, poor fit] | –
COc1cccc(CN(Cc2cccnc2)S(=O)(=O)c2ccc(-n3cnnn3)c(C)c2)c1 | inconclusive: 56.2 µM [inhibitor, partial curve, poor fit] | –
O=C(NCc1cccnc1)c1cc(S(=O)(=O)N2CCCCC2)ccc1Cl | inconclusive: 25.1 µM [inhibitor, single point] | –
COc1cc(OC)cc(C(=O)Nc2ccc3nc(Nc4cccc(C(F)(F)F)c4)cc(C)c3c2)c1 | – | inactive: 13.8%
COc1cc2sc3cc(NCc4ccc(C)o4)ccc3c(=O)c2cc1OC | active: 22.4 µM | –
O=C(NN1C(=O)/C(=C/C=C/c2ccco2)SC1=S)c1ccccc1O | active: 1.26 µM | –
O=C(O)CCCCCN1C(=O)/C(=C/c2ccncc2)SC1=S | inconclusive: 28.2 µM [inhibitor, partial curve] | –
COc1ccc(CC(C)N2CCN(Cc3ccccc3)CC2)c(OC)c1 (centres undefined) | inconclusive: 44.7 µM [inhibitor, partial curve] | –
CCNC(=S)N1CCN(c2ncccn2)CC1 | inconclusive: 89.1 µM [inhibitor, single point] | –
COC(=O)c1oc2ccccc2c1NC(=O)/C=C/C(=O)O | – | inactive: 30.5%
CCc1ccc(OCCCCn2c(CCNC(=O)C3CCCCC3)nc3ccccc32)cc1 | – | inactive: 14.7%
c1ccc(-n2cnc3cc(NCc4ccccn4)ccc32)cc1 | inconclusive: 20 µM [inhibitor, full curve, poor fit] | –
O=C(COC(=O)c1ccc(O)cc1O)N=c1sccn1Cc1ccccc1Cl | – | inactive: 5.03%
COc1ccc(-c2nc(CNC(=O)Nc3ccccc3)c(C)o2)cc1 | – | inactive: 5%
COc1cccc(Cn2c(CNS(=O)(=O)c3ccc(C(C)(C)C)cc3)nc3cccnc32)c1 | inconclusive: 89.1 µM [inhibitor, single point] | –
CC1=C(C(=O)Nc2ccccc2)C(c2ccc(N(C)C)cc2)NC(=O)N1 (centres undefined) | inconclusive: 3.16 µM [inhibitor, partial curve, poor fit] | –
CCNC(=O)c1ccccc1SCc1ccccc1 | – | inactive: 2.92%
COc1ccc(Cl)cc1-c1n[nH]c(=S)o1 | – | inactive: -3.33%
CN(C)CCCN(C(=O)c1ccc(S(=O)(=O)N(C)C2CCCCC2)cc1)c1nc2ccc(F)cc2s1 | – | inactive: 8.43%
CC(C)(C)n1ncc2c(=O)n(Cc3ccc(C(=O)c4ccccc4)cc3)cnc21 | – | inactive: 24.5%
O=C(O)c1cccc(Nc2nc3ccccc3nc2NS(=O)(=O)c2ccc(F)cc2)c1 | inconclusive: 56.2 µM [inhibitor, partial curve, poor fit] | –
O=C(N/C=C/c1ccco1)OCc1ccccc1 | inconclusive: 44.7 µM [inhibitor, full curve, poor fit] | –
CCCCN1C(=N)N([C@@H](CN2CCC[C@H]2CN2C(N)=NC[C@@H]2Cc2ccccc2)C(C)C)C[C@H]1Cc1ccccc1 | inconclusive: 10 µM [inhibitor, partial curve, poor fit] | –

By substructure: the entries above containing an NH in an aromatic ring.
Compound | Potency | activity, negative = inhibition
Cc1ccc(Cl)cc1N1CCN(S(=O)(=O)c2ccc3[nH]c(=O)ccc3c2)CC1 | inconclusive: 44.7 µM [inhibitor, single point] | –
COc1ccc(Cl)cc1-c1n[nH]c(=S)o1 | – | inactive: -3.33%
